{"source": "ChEMBL document CHEMBL4513141", "about": "“CO-ADD screening of NIH (USA) - Clinical Collection” (2021)", "note": "Some of the results follow. Measured potencies and affinities stand elsewhere."}
{"tested_on": "Pseudomonas aeruginosa", "conditions": "Concentration 20 uM; ASSAY_TEST Inhibition of Bacterial Growth; detection method Absorption (OD600); MEDIA CAMHB; plate type 384well; NBS; CORNING #3640; time 18 hr", "units": {"Inhibition": "%"}}
{"smiles": "CC(O)(CS(=O)(=O)c1ccc(F)cc1)C(=O)Nc1ccc(C#N)c(C(F)(F)F)c1", "note": "(stereo unspecified) [BICALUTAMIDE]", "Inhibition": 4.08}
{"smiles": "CCOC(=O)c1cncn1[C@H](C)c1ccccc1", "note": "[ETOMIDATE]", "Inhibition": 14.32}
{"smiles": "CC(COc1ccccc1)N(CCCl)Cc1ccccc1.Cl", "note": "(stereo unspecified) [PHENOXYBENZAMINE HYDROCHLORIDE]", "Inhibition": 12.84}
{"smiles": "COCCCOc1ccnc(C[S+]([O-])c2nc3ccccc3[nH]2)c1C", "note": "(stereo unspecified) [RABEPRAZOLE]", "Inhibition": 18.08}
{"smiles": "CC(=O)OCC[N+](C)(C)C.[Cl-]", "note": "[ACETYLCHOLINE CHLORIDE]", "Inhibition": 6.67}
{"smiles": "Cl.FC(F)(F)c1cccc(N2CCNCC2)c1", "note": "[N- (3-TRIFLUOROMETHYLPHENYL)PIPERAZINE HYDROCHLORIDE (TFMPP)]", "Inhibition": 9.28}
{"smiles": "Cc1nnc2n1-c1ccc(Cl)cc1C(c1ccccc1)=NC2", "note": "[ALPRAZOLAM]", "Inhibition": 52.22}
{"smiles": "COc1ccc(C(CN(C)C)C2(O)CCCCC2)cc1.Cl", "note": "(stereo unspecified) [VENLAFAXINE HYDROCHLORIDE]", "Inhibition": 11.05}
{"smiles": "CC(C)NCC(O)c1ccc(O)c(O)c1.Cl", "note": "(stereo unspecified) [ISOPROTERENOL HYDROCHLORIDE]", "Inhibition": 5.9}
{"smiles": "O=C(O)C(Cl)Cl", "note": "[DICHLOROACETIC ACID]", "Inhibition": 15.81}
{"smiles": "CC[N+](C)(C)c1cccc(O)c1.[Cl-]", "note": "[EDROPHONIUM CHLORIDE]", "Inhibition": 11.75}
{"smiles": "Cl.O=C1c2cccc3c2[C@H](CCC3)CN1[C@@H]1CN2CCC1CC2", "note": "[PALONOSETRON HYDROCHLORIDE]", "Inhibition": 10.25}
{"smiles": "Cc1c(OCC(F)(F)F)ccnc1C[S+]([O-])c1nc2ccccc2[nH]1", "note": "(stereo unspecified) [LANSOPRAZOLE]", "Inhibition": 11.72}
{"smiles": "CCOC(=O)C1(c2ccccc2)CCN(CCC(C#N)(c2ccccc2)c2ccccc2)CC1.Cl", "note": "[DIPHENOXYLATE HYDROCHLORIDE]", "Inhibition": 6.91}
{"smiles": "CN1C(=O)CN=C(c2ccccc2)c2cc(Cl)ccc21", "note": "[DIAZEPAM]", "Inhibition": 6.74}
{"smiles": "Br.COc1ccc2c3c1O[C@H]1C[C@@H](O)C=C[C@@]31CCN(C)C2", "note": "[GALANTAMINE HYDROBROMIDE]", "Inhibition": 16.54}
{"smiles": "CN1CCC[C@H]1c1cccnc1", "note": "[NICOTINE]", "Inhibition": -4.09}
{"smiles": "CN[C@@H]1C[C@@H](c2ccc(Cl)c(Cl)c2)c2ccccc21.Cl", "note": "[INDATRALINE HYDROCHLORIDE]", "Inhibition": 1.08}
{"smiles": "C[C@H](CCC(=O)O)[C@H]1CC[C@H]2[C@@H]3[C@@H](O)C[C@@H]4C[C@H](O)CC[C@]4(C)[C@H]3CC[C@]12C", "note": "[URSODIOL]", "Inhibition": 8.73}
{"smiles": "CC(C)c1cccc(C(C)C)c1O", "note": "[PROPOFOL]", "Inhibition": -2.23}
{"smiles": "CCC(COC(=O)c1cc(OC)c(OC)c(OC)c1)(c1ccccc1)N(C)C.O=C(O)/C=C\\C(=O)O", "note": "(stereo unspecified)", "Inhibition": 12.52}
{"smiles": "CC(C)NCC(O)COc1cccc2[nH]ccc12", "note": "(stereo unspecified) [PINDOLOL]", "Inhibition": 13.32}
{"smiles": "c1ccc(Cn2ccnc2)cc1", "Inhibition": 12.69}
{"smiles": "CC(C)N(CCC(C(N)=O)(c1ccccc1)c1ccccn1)C(C)C.O=P(O)(O)O", "note": "(stereo unspecified) [DISOPYRAMIDE PHOSPHATE]", "Inhibition": 5.03}
{"smiles": "C[C@]12CC(C=O)=C(O)C[C@@H]1CC[C@@H]1[C@@H]2CC[C@@]2(C)[C@H]1CC[C@]2(C)O", "Inhibition": 6.85}
{"smiles": "COC(=O)C[C@](O)(CCCC(C)(C)O)C(=O)O[C@@H]1C(OC)=C[C@]23CCCN2CCc2cc4c(cc2[C@H]13)OCO4", "note": "[OMACETAXINE MEPESUCCINATE]", "Inhibition": 11.81}
{"smiles": "C[C@]12CC[C@H](O)CC1=CC[C@@H]1[C@@H]2CC[C@@]2(C)[C@H]1CC[C@]2(C)O", "note": "[METHANDRIOL]", "Inhibition": 4.21}
{"smiles": "c1ccc2c(c1)Nc1ccccc1S2", "note": "[PHENOTHIAZINE]", "Inhibition": 12.74}
{"smiles": "O=C1Nc2ccc(Cl)cc2C(c2ccccc2Cl)=NC1O", "note": "(stereo unspecified) [LORAZEPAM]", "Inhibition": 7.26}
{"smiles": "CN1CCN(C(=O)O[C@H]2c3nccnc3C(=O)N2c2ccc(Cl)cn2)CC1", "note": "[ESZOPICLONE]", "Inhibition": 5.48}
{"smiles": "CNCCC(Oc1ccc(C(F)(F)F)cc1)c1ccccc1.Cl", "note": "(stereo unspecified) [FLUOXETINE HYDROCHLORIDE]", "Inhibition": 11.84}
{"smiles": "CCCN1C[C@H](CSC)C[C@@H]2c3cccc4[nH]cc(c34)C[C@H]21.CS(=O)(=O)O", "note": "[PERGOLIDE MESYLATE]", "Inhibition": 7.83}
{"smiles": "CN1CCN2c3ncccc3Cc3ccccc3C2C1", "note": "(stereo unspecified) [MIRTAZAPINE]", "Inhibition": -7.46}
{"smiles": "NC1=NC(=O)C(c2ccccc2)O1", "note": "(stereo unspecified) [PEMOLINE]", "Inhibition": 19.66}
{"smiles": "Cl.NCCc1ccc(O)c(O)c1", "note": "[DOPAMINE HYDROCHLORIDE]", "Inhibition": 7.35}
{"smiles": "CC[C@]1(O)CC[C@H]2[C@@H]3CCC4=CCCC[C@@H]4[C@H]3CC[C@@]21C", "note": "[ETHYLESTRENOL]", "Inhibition": 21.56}
{"smiles": "COc1cc(-c2ccc(=O)[nH]n2)ccc1OC(F)F", "note": "[ZARDAVERINE]", "Inhibition": 12.07}
{"smiles": "C[N+]1(C)CCC(OC(=O)C(O)(c2ccccc2)C2CCCC2)C1.[Br-]", "note": "(stereo unspecified) [GLYCOPYRRONIUM BROMIDE]", "Inhibition": 13.33}
{"smiles": "CNS(=O)(=O)Cc1ccc2[nH]cc(CCN(C)C)c2c1.O=C(O)CCC(=O)O", "note": "[SUMATRIPTAN SUCCINATE]", "Inhibition": 10.2}
{"smiles": "C#C[C@]1(O)CC[C@H]2[C@@H]3CCC4=CC(=O)CC[C@@H]4[C@H]3CC[C@@]21C", "note": "[NORETHINDRONE]", "Inhibition": 4.59}
{"smiles": "CN1C(=O)COc2c(C(=O)NC3CN4CCC3CC4)cc(Cl)cc21.Cl", "note": "(stereo unspecified)", "Inhibition": 37.41}
{"smiles": "CC(NC(C)(C)C)C(=O)c1cccc(Cl)c1.Cl", "note": "(stereo unspecified) [BUPROPION HYDROCHLORIDE]", "Inhibition": 9.58}
{"smiles": "CNCC(O)c1ccc(O)cc1", "note": "(stereo unspecified) [OXEDRINE]", "Inhibition": 6.75}
{"smiles": "Br.Br.CN1CC[C@]2(c3cccc(O)c3)Cc3nc4ccccc4cc3C[C@H]2C1.O", "Inhibition": 13.22}
{"smiles": "CC(C)C(=O)Nc1ccc([N+](=O)[O-])c(C(F)(F)F)c1", "note": "[FLUTAMIDE]", "Inhibition": 6.76}
{"smiles": "Br.COc1ccc2c(c1)[C@]13CCCC[C@@H]1[C@H](C2)N(C)CC3.O", "note": "[DEXTROMETHORPHAN HYDROBROMIDE]", "Inhibition": 17.98}
